From article PMC7366740 come the findings set out here.

Amino acid sequences for entries named in this document (tags omitted). Residues count along the entry.
UniProt Q99KH8: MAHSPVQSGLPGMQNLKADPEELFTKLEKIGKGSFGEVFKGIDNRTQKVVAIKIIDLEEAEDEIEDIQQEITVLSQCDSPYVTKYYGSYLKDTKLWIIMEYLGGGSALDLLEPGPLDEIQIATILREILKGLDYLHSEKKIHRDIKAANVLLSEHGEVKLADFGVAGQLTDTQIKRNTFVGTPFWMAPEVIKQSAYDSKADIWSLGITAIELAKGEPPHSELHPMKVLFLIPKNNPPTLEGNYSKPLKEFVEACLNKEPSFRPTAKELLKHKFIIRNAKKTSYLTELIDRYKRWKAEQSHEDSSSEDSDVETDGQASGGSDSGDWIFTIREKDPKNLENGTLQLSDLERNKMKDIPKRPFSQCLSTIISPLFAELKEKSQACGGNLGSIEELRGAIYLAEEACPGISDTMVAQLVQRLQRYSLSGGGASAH
UniProt P23819, residues 25-883: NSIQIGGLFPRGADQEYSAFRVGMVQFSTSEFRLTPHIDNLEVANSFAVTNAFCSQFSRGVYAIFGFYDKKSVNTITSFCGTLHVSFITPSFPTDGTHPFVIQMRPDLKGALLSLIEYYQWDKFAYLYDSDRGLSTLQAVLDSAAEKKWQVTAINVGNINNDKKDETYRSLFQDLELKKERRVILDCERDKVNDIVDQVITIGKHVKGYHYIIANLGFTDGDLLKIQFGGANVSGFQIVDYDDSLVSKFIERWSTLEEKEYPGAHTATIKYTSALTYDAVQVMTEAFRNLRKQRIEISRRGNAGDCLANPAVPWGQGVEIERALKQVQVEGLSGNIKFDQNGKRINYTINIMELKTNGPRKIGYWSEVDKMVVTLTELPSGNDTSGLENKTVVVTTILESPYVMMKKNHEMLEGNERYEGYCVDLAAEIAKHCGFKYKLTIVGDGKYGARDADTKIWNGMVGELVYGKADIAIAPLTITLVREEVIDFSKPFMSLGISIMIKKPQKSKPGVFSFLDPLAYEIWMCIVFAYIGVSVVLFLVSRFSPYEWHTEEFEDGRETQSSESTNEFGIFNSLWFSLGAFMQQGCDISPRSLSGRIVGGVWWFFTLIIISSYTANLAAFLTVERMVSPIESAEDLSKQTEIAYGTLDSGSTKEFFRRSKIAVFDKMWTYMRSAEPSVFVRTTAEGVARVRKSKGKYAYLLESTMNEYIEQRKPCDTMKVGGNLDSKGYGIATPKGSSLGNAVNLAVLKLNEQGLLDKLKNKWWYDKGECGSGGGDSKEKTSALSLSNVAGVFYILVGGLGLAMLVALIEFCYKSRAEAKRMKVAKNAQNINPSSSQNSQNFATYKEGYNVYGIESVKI
UniProt Q01097, residues 27-1482: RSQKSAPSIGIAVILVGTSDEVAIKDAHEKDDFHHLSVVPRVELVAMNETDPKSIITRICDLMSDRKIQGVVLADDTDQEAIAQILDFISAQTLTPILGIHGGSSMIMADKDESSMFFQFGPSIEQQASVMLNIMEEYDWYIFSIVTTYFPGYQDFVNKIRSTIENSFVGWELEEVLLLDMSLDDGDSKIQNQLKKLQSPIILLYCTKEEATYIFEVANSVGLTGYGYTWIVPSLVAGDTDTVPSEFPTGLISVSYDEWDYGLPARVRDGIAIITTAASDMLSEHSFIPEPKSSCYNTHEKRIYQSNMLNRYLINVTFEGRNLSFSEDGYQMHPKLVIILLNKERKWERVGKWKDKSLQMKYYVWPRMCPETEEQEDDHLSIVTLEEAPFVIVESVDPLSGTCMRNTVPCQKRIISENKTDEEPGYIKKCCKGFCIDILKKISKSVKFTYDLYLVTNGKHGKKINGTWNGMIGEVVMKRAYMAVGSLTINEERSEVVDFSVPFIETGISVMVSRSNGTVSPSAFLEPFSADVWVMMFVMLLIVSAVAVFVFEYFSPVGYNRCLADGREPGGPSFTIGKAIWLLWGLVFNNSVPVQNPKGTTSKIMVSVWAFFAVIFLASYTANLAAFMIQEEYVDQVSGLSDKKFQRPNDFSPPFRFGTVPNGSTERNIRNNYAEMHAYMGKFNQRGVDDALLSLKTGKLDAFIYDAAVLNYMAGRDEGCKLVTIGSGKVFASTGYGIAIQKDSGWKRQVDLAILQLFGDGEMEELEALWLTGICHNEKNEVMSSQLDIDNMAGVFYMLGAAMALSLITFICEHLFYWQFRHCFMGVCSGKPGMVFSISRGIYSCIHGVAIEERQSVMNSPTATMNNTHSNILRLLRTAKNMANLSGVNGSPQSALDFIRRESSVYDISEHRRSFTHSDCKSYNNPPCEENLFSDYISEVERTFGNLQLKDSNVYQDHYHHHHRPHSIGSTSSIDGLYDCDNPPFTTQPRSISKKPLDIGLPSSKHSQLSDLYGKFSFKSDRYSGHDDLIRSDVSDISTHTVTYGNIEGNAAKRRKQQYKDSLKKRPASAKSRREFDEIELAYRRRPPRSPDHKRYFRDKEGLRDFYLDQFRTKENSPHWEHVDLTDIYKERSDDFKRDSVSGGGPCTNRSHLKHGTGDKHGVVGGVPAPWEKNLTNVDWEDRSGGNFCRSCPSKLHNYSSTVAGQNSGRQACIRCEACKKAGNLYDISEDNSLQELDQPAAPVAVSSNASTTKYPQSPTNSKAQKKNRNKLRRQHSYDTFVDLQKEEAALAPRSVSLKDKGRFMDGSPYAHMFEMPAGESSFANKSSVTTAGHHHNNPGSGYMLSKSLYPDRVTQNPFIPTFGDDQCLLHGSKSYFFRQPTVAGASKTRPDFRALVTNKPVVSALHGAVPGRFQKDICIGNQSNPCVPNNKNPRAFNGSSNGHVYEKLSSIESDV
UniProt P23818, residues 19-907: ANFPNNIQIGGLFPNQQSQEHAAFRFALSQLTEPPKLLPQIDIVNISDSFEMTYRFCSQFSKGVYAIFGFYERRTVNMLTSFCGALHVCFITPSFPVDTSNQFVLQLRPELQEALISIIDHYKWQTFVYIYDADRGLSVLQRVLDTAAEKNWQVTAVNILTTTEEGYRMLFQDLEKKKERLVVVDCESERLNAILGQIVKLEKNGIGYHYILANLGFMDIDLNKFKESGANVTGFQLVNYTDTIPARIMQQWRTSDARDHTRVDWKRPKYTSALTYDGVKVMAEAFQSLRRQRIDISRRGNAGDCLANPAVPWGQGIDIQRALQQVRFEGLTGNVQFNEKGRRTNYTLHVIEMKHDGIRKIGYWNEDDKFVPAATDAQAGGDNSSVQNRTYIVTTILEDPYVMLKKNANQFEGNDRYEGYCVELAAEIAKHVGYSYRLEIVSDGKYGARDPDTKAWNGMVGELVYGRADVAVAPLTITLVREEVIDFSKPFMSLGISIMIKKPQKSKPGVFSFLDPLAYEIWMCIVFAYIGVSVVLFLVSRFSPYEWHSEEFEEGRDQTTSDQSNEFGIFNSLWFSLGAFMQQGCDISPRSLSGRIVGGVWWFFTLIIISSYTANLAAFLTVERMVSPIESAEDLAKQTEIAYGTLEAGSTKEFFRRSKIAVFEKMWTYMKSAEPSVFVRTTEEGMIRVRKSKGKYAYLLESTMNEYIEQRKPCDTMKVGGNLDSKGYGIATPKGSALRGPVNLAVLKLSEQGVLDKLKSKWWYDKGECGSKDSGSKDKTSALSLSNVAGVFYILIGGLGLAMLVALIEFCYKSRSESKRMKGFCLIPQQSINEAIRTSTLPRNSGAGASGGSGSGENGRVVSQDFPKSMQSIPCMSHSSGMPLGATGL
UniProt P62812, residues 28-455: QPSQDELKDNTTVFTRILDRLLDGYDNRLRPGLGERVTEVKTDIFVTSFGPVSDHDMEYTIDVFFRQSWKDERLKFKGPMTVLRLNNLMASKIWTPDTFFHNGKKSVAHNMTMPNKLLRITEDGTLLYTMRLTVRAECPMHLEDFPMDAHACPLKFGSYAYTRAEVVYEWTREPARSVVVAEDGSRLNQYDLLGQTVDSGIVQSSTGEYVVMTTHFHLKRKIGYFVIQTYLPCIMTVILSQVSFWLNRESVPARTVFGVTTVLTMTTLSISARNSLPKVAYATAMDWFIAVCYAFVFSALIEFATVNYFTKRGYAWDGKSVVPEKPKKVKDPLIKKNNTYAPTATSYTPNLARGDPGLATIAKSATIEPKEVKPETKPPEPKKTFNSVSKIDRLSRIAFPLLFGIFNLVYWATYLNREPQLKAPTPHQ

Experiment [1] concerns the target Serine/threonine kinase 24 (STK24) (mouse (endogenous in hippocampus of PTZ-kindled C57BL/6 mice)) (UniProt Q99KH8). Briefly: co-IP; hippocampal lysates of PTZ-kindled mice; STK24 antibody on protein A/G magnetic beads; precipitate blotted for receptor subunits; rabbit IgG as negative control.
Experiment [2] deals with AMPA receptor subunit GluR2 (mouse (endogenous in hippocampus of PTZ-kindled C57BL/6 mice)) (UniProt P23819). Briefly: co-IP; hippocampal lysates of PTZ-kindled mice; antibody against the receptor subunit on protein A/G magnetic beads; precipitate blotted with corresponding antibodies (STK24); rabbit IgG as negative control.
The target in experiment [3] is NMDA receptor subunit NR1 (mouse (endogenous in hippocampus of PTZ-kindled C57BL/6 mice)) (UniProt P35438). The description is as above.
The target of experiment [4] is NMDA receptor subunit NR2B (mouse (endogenous in hippocampus of PTZ-kindled C57BL/6 mice)) (UniProt Q01097). The experiment is described as above.
The target in experiment [5] is AMPA receptor subunit GluR1 (mouse (endogenous in hippocampus of PTZ-kindled C57BL/6 mice)) (UniProt P23818). Described as above.
Experiment [6] has as its target T1, GABAAR γ2 (mouse (endogenous in hippocampus of PTZ-kindled C57BL/6 mice)) (UniProt P22723).
T1 sequence: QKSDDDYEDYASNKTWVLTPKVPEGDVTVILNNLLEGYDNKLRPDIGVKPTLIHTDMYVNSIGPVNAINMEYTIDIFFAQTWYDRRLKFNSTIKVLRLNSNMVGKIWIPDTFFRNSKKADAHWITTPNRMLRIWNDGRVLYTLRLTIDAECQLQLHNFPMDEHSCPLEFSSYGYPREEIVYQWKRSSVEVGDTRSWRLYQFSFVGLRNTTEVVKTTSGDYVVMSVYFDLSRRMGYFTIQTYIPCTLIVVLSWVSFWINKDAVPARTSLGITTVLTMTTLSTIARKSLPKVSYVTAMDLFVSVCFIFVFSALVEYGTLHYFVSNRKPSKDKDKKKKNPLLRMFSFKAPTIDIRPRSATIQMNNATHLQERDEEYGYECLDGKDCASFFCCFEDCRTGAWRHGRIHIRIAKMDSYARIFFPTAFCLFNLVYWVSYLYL
The experiment is described as above.

In experiment [7] the target is GABAAR α1 (mouse (endogenous in hippocampus of PTZ-kindled C57BL/6 mice)) (UniProt P62812). The description is as above.
Experiment [8] deals with NMDA receptor subunit NR2A (mouse (endogenous in hippocampus of PTZ-kindled C57BL/6 mice)) (UniProt P35436). The experiment is described as above.

Results are given in words; binding and its absence hold for the method and conditions named. Binding seen in cells or lysates may run through a third protein. Some binding calls cover weakened binding; strength is not graded here.

On to “NMDA receptor subunit NR2A (from UniProt P35436 23-1464)”, for which the binding entry in experiment [1] was “binds”.
Turning to “NMDA receptor subunit NR2B (from UniProt Q01097 27-1482)”, the binding result in experiment [1] was “binds”.
As for “Serine/threonine kinase 24 (STK24) (from UniProt Q99KH8 1-431)”, the binding result in experiment [2] is on record as “no binding”; in experiment [3], “binds”; in experiment [4], “binds”; in experiment [5] it was “no binding”; in experiment [6] it was “no binding”; in experiment [7], “no binding”. The binding result in experiment [8] is listed as “binds”.
